Results are given in words; binding and its absence hold for the method and conditions named. A result given as binding can be weak or reduced; the word gives no strength. Where a sequence is shown, tags or fusion partners need not be part of it.
What was measured:
[1] = target: BD-SJP1 (jujube witches' broom (JWB) phytoplasma); assay: two-hybrid; bait (BD, pGBKT7) and prey (AD) vectors cotransformed into S. cerevisiae Y2HGold; growth on SD/-Ade/-His/-Leu/-Trp with 40 ug/ml X-alpha-Gal and 200 or 400 ng/ml AbA at 30°C for 3-5 days
[2] = target: BD-SJP2 (jujube witches' broom (JWB) phytoplasma); assay: as above

B1: AD-AtBRC1 (protein, UniProt A1YKT1 1-433)
chain: MNNNIFSTTTTINDDYMLFPYNDHYSSQPLLPFSPSSSINDILIHSTSNTSNNHLDHHHQFQQPSPFSHFEFAPDCALLTSFHPENNGHDDNQTIPNDNHHPSLHFPLNNTIVEQPTEPSETINLIEDSQRISTSQDPKMKKAKKPSRTDRHSKIKTAKGTRDRRMRLSLDVAKELFGLQDMLGFDKASKTVEWLLTQAKPEIIKIATTLSHHGCFSSGDESHIRPVLGSMDTSSDLCELASMWTVDDRGSNTNTTETRGNKVDGRSMRGKRKRPEPRTPILKKLSKEERAKARERAKGRTMEKMMMKMKGRSQLVKVVEEDAHDHGEIIKNNNRSQVNRSSFEMTHCEDKIEELCKNDRFAVCNEFIMNKKDHISNESYDLVNYKPNSSFPVINHHRSQGAANSIEQHQFTDLHYSFGAKPRDLMHNYQNMY
With B1 the binding [1] was “binds” and the binding [2] was “binds”.

— publication PMC10483173
